Data from publication PMC3540053.
No constants are given. Whether binding was seen depends on the method and setting.

Columns and labels:
Assay in all cases: two-hybrid; OsCOIs as baits in pGBKT7, OsJAZs or JAZs as preys in pGADT7, co-transformed into S. cerevisiae AH109; growth on SD without Ade, His, Leu and Trp (QDO) with 100 µM coronatine, 7 days; graded strong (+++), medium (++), weak (+), undetectable (−)
OsCOI1a (Oryza sativa) = target: T1, OsCOI1a (Oryza sativa) (UniProt Q6Y9P5)
T1 sequence: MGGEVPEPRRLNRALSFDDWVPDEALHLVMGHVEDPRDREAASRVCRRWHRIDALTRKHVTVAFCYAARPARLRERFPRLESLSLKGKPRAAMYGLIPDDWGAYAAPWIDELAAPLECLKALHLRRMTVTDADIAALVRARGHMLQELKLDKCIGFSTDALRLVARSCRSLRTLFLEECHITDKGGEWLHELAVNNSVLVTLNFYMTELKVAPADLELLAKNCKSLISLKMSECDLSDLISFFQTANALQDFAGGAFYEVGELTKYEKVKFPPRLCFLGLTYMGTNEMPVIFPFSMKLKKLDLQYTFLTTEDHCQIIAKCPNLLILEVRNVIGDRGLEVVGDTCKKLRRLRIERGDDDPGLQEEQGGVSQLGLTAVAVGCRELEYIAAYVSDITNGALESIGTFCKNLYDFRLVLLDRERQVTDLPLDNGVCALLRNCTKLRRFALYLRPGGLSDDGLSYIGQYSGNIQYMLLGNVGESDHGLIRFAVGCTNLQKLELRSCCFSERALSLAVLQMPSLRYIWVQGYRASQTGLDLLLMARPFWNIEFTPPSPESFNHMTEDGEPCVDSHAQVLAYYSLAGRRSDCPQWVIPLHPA

[1] = target: T2, OsCOI2(F91Y, H391Y, N477Y) (Oryza sativa) (UniProt Q84QA7)
T2 sequence: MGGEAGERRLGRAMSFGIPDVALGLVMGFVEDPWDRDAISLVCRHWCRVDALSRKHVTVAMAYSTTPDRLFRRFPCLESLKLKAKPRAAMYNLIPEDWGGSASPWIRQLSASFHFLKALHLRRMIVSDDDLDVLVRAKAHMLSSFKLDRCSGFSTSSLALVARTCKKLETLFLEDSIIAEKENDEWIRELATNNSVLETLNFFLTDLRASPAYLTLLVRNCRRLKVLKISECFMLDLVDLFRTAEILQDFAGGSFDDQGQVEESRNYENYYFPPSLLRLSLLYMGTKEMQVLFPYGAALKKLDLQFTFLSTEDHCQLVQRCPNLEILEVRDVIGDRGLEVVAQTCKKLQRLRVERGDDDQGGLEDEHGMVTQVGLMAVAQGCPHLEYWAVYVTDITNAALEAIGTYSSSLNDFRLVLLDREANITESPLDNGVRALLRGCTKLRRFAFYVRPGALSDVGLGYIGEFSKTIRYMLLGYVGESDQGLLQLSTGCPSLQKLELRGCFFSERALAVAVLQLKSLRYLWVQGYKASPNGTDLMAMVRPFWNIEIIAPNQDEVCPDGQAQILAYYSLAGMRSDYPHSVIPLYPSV

[2] = target: T3, OsCOI2(F91Y) (Oryza sativa) (UniProt Q84QA7)
T3 sequence: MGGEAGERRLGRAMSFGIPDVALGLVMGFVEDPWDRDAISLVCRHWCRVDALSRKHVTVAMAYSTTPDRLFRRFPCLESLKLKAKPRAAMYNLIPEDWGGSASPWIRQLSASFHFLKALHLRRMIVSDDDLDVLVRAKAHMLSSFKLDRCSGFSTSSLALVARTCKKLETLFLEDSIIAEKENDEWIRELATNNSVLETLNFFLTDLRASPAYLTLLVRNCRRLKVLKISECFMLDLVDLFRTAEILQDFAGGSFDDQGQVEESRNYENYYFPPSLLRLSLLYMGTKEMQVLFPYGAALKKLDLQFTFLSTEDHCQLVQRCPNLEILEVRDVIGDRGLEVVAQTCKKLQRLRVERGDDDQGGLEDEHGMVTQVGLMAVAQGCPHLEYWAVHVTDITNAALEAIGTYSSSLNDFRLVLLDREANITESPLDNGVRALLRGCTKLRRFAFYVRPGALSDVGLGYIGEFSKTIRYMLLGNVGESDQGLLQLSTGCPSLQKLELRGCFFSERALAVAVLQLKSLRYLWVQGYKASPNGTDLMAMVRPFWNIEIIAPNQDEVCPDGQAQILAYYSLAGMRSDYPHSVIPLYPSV

OsCOI1b (Oryza sativa) = target: T4, OsCOI1b (Oryza sativa) (UniProt Q60EH4)
T4 sequence: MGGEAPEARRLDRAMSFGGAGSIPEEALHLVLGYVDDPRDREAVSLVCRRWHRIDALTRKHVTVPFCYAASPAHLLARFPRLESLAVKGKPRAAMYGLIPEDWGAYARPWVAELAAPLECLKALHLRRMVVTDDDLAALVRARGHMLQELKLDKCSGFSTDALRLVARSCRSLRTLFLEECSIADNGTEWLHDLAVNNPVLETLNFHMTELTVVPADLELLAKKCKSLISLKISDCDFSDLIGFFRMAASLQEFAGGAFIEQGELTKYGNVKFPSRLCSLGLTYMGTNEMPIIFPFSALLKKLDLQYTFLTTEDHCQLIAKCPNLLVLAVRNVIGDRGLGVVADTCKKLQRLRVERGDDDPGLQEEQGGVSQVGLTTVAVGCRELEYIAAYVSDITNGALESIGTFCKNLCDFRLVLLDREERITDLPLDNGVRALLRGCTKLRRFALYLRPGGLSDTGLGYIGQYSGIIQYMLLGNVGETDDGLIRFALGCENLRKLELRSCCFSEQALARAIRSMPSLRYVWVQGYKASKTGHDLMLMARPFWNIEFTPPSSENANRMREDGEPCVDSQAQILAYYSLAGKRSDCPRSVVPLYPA

Measured: binding

B1: OsJAZ4 (protein, UniProt Q10QW3 1-187)
chain: MAMEGKSRRFAVACGVLSQYVRAEQKMAAAAGAAPARAVTTLSLMPGAEVVVEEEERREVGEEEAGPATAPAAPLTIFYGGRMVVFEDFPADKAAEVMRMASSGMAAAPAQREGAALADMPIMRKASLQRFFAKRKDRLAATTPYARPSPAETKASEPEEKKTPTSWLDLAASASAAARRDSLTIAL
no binding: OsCOI1a (Oryza sativa) | [1] | [2]

B2: OsJAZ12 (protein, UniProt Q6Z2K1 1-157)
chain: MPPPAAVASLTLQVPGGAHDVTSLATSPRTMAVPGTTEQLTIFYSGSMVKFDNVPREKIRYACRLRRLYSSLQRSLQTQDTSMFPSSSSLHIQTKRRGYSVIRLLREMLMVCSSTRTKPMLVHSDSIGAQRTGTPPSRRRIHARGKSRSCQEMSHCW
no binding: all assays above

B3: OsJAZ3 (protein, UniProt Q8GSI0 1-179)
chain: MASTDPMTRRFAVACGVLSQYVKANSSQPSTAAPVAQGVSGLMAAAAAAAAAPVVQEPGCEVDGGGQQFTIFYAGKVVVIDRCTPAMAAELMRFASAAQGGGGAPEAPPALVDMPIARKASLKRFLAKRKATPASARSSYVVRAAAAEEEQPPAKKAKAAVERREDWLALGSLGHMHSR
no binding: [1] | [2]
